The supplement of paper PMC12873370
Some of the results follow. Many values rest on one well or one pass, so single values are uncertain.

These compounds were tested on PREPP (mouse prostate epithelium Trp53/Pten KO) (assay: cell viability relative to untreated (fraction); higher = less growth inhibition). Details: 5 µM; 3 days.

**Q.** For O=C(O)[C@@]1(CCCCCCOc2ccc(Cl)cc2)CO1, which cell viability is on record?
**A.** The cell viability was 1.02.

**Q.** Cc1cnc(Nc2ccc(N3CCN(C)CC3)cc2)nc1Nc1cccc(S(=O)(=O)NC(C)(C)C)c1 was tested. Which cell viability did it give?
**A.** Its cell viability is 0.572.

**Q.** With N#Cc1c(Oc2ccc(F)c(NC(=O)Cc3cccc(C(F)(F)F)c3)c2)ccc2nc(NC(=O)C3CC3)sc12 as the compound, how does the cell viability read?
**A.** Its cell viability is 0.838.

**Q.** How did the cell viability turn out when CC(=O)N1c2ccc(-c3ccc(C(=O)O)cc3)cc2[C@H](Nc2ccc(Cl)cc2)C[C@@H]1C was run?
**A.** Its cell viability is 0.634.

**Q.** How did the cell viability turn out when O=C(Nc1ccc(-c2ccnc(Nc3ccc(N4CCOCC4)cc3)n2)cc1)C1CCCN1 (stereo unspecified) was run?
**A.** Its cell viability is 0.699.

**Q.** With O=C(Nc1cccc(Nc2nccc(Nc3cccc(C(F)(F)F)c3)n2)c1)C1CC1 as the compound, how does the cell viability read?
**A.** The cell viability was 0.943.

**Q.** For CC(C)[C@H](C(=O)Nc1ccc(C(=O)NO)cc1)c1ccccc1, which cell viability is on record?
**A.** The cell viability was 0.828.

**Q.** With NC(=O)c1ccc(I)c([N+](=O)[O-])c1 as the compound, how does the cell viability read?
**A.** Its cell viability is 0.992.

**Q.** Which cell viability does the source give for CN1CCCN(C(=O)c2cccc(-c3ccc(/C=C4/C(=O)Nc5ccc(Cl)cc54)o3)c2)CC1 here?
**A.** Its cell viability is 0.755.

**Q.** With Cn1c2ccccc2c2c3c(c4c5ccccc5n(CCC#N)c4c21)CNC3=O as the compound, how does the cell viability read?
**A.** The cell viability was 0.836.

**Q.** Cc1[nH]c2ccccc2c1CCNCc1ccc(/C=C/C(=O)NO)cc1 was tested. Which cell viability did it give?
**A.** Its cell viability is 0.995.

**Q.** Nc1nccc2c1ncn2C1C=C(CO)C(O)C1O (stereo unspecified) was tested. Which cell viability did it give?
**A.** Its cell viability is 0.967.

**Q.** For O=C(CCCCCN1C(=O)c2cccc3cccc(c23)C1=O)NO, which cell viability is on record?
**A.** Its cell viability is 0.526.

**Q.** How did the cell viability turn out when Cn1ncnc1[C@H]1c2n[nH]c(=O)c3cc(F)cc(c23)N[C@@H]1c1ccc(F)cc1 was run?
**A.** Its cell viability is 0.754.

**Q.** Which cell viability does the source give for Clc1ccc(NN=C(c2ccccc2)c2ccccn2)nc1 here?
**A.** The cell viability was 0.565.

**Q.** How did the cell viability turn out when COc1ccc(-n2c(SCCCN3C(=O)c4cccc5cccc(c45)C3=O)nnc2-c2ccncc2)cc1 was run?
**A.** Its cell viability is 0.994.
